Where two headings read alike, the source gives them in different places. At least one peptide structure holds a part that was inferred or is arguable (an end, a ring closure or a residue). Residues, ends and D or L forms follow the SMILES beside them.
Test system: Leu-βgal
Format: cell-based, Saccharomyces cerevisiae
Conditions: 10 mM dipeptide, 4 hours incubation, 5 minute pulse
Experimental: Transformed cells were grown as described above, except that methionine (20 ug/mL) was included, to an optical density of about 0.5 at 600 nm. Amino acid derivatives were added and incubation continued for 4 to 5 hours until the optical density was approximately 1.0. Cells from a 10 mL culture were harvested by filtration through the well of a microtiter filtration plate. Subsequently, the cells were washed several times on the filter in the growth medium lacking methionine, and resuspended in 0.4 mL of 1% galactose, 50 mM potassium phosphate buffer (pH 7.4). (^35 S)methionine (100 uCi) was then added for a specified pulse time. The cells were collected by filtration and resuspended in 0.4 mL of the growth medium containing cycloheximide (0.2 mg/mL) and trichodermin (50 ug/mL). […] The extracts were centrifuged at 12,000 g for 10 minutes and the radioactivity of acid-insoluble ^35 S in the supernatants was determined. […]
After fluorography of the pulse-chase gels, the amount of radioactivity in each band was detected by scintillation counting of the respective gel slices. Half-lives were calculated from these values (appropriately adjusted using the value from a blank gel slice) assuming a first-order kinetics of protein breakdown. […]

In the case of `C[C@H](N)C(=O)N[C@@H](Cc1c[nH]c2ccccc12)C(=O)O` [L-Ala-L-Trp, reference compound] (H-Ala-Trp-OH), the “half-life (stabilization) of Leu-βgal in the presence of dipeptide” value is reported as “not”.

With `C[C@H](NC(=O)[C@@H](N)Cc1c[nH]c2ccccc12)C(=O)O` [L-Trp-L-Ala, L-tryptophan-L-alanine] (H-Trp-Ala-OH) the “half-life (stabilization) of Leu-βgal in the presence of dipeptide” value (listed as L-tryptophan-L-alanine) was “extended”.

— US5766927A, “Inhibition of protein degradation in living cells with dipeptides” (Massachusetts Institute of Technology, priority 1994, dated 1998)
